Source: patent US9820483B2, “Microbial composition” (Rohm and Haas Company, priority 2011, dated 2017)
“And” between values parts separate entries of the source, which are not always exact repeats. Equal entries are not always repeated. The name of at least one read-out is uncertain.

Test system: E. coli ATCC #10536
Assay: Synergy test: high resolution MBC microtiter plate assay in phosphate buffer containing 35% dipropylene glycol, 15 seconds contact
Type: cell-based, Escherichia coli
Conditions: E. coli 10536, complete kill in 15 seconds, phosphate buffer with 35% DPG
Description: One measure of synergy is the industrially accepted method described by Kull, F. C.; Eisman. P. C.; Sylwestrowicz, H. D. and Mayer, R. L., in Applied Microbiology 9:538-541 (1961), using the ratio determined by the formula: Qa/QA÷Qb/QB=Synergy Index (“SI”) wherein: QA=concentration of compound A (first component) in percent, acting alone, which produced an end point (MBC of Compound A). […]=concentration of compound A in percent, in the mixture, which produced an end point. QB=concentration of compound B (second component) in percent, acting alone, which produced an end point (MBC of Compound B). Qb=concentration of compound B in percent, in the mixture, which produced an end point. […]
Synergy tests were conducted using standard microtiter plate assays with phosphate buffer containing 35% dipropylene glycol (DPG). […] High resolution MBCs were determined by adding varying amounts of microbicide to one column of a microtiter plate and doing subsequent ten-fold dilutions using an automated liquid handling system to obtain a series of closely spaced endpoints. […] The TSB plate was incubated at 37° C. and read for the presence/absence of growth at 24 hours. […]
The synergy of the combinations of the present invention was determined against a bacterium, Esherichia coli (E. coli—ATCC #10536), at a concentration of approximately 1×10^8 bacteria per mL. […]

For Cc1ccc(C(C)C)cc1O [5-isopropyl-2-methylphenol], the “MBC of the component acting alone (QA or QB; Qa or Qb with the other component at 0)” value was 0.2 weight % and 0.5 weight %.
